# Values joined by “and” are separate entries in the source; they are usually repeats but may differ in a detail not shown here. Equal entries are not always repeated. Structures can show the parent of a compound that is named as a salt. ± gives the standard deviation of the averaged measurements. The list shows a part of the results. Baselines shift from plate to plate; read single values as rough.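 Primary human stellate myofibroblasts activated in culture; inactivation shown by regained lipid droplets. Readout: fraction of Hoechst-counted cells exceeding a per-plate Bodipy threshold, duplicate wells, each plate with DMSO negative and nortriptyline positive controls. Hits: control-normalized score beyond the plate's top-tenth-percentile nortriptyline wells, or among its three best wells. Final well concentrations unstated.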
# Tested on: primary human hepatic stellate cells (donor 1)
# Test: percent Bodipy-positive cells; higher = more lipid droplet accumulation
# Details: 48 h
# Experimental: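 Primary lipid accumulation screen in primary human hepatic stellate cell myofibroblasts (donor 1, passage 8) in 384-well plates. 100 nL of library compound was pin-transferred into 30 µL medium in duplicate, and cells were treated for 48 h. The 'Scaled' score combines distance from plate baseline, toxicity and reproducibility penalties, and is normalised to nortriptyline (positive) and DMSO (negative) controls on each plate. A hit is defined as scaled >0.85 or among the top 3 wells per plate.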
# [1] = library stock concentration: 10 mM
# [2] = library stock concentration: 1 mM
# [3] = library stock concentration: 3.33 mM
# [4] = library stock concentration: 80 uM
# [5] = library stock concentration: 400 uM
# [6] = library stock concentration: 2 mM
compound,measurement,setting,value
CCOC(=O)C1=C[C@@H](OC(CC)CC)[C@H](NC(C)=O)[C@@H](N)C1 [Oseltamivir],percent Bodipy-positive cells,library stock concentration: 6.4 mM,8.6 ± 1.9%
C[N+]1(CCCCC[N+]2(C)CCCC2)CCCC1 [Pentolinium tartrate],percent Bodipy-positive cells,[1],32.6 ± 3.6%
C[N+]1(CCCCC[N+]2(C)CCCC2)CCCC1 [Pentolinium di[L(+)-tartrate]],percent Bodipy-positive cells,[1],21.4 ± 3.3%
C[N+]1(CCCCC[N+]2(C)CCCC2)CCCC1 [Pentolinium bitartrate],percent Bodipy-positive cells,,36.5 ± 18%
CC[C@]1(O)C[C@@H]2CN(CCc3c([nH]c4ccccc34)[C@@](C(=O)OC)(c3cc4c(cc3OC)N(C)[C@@H]3C45CCN4CC=C[C@](CC)([C@H]45)[C@H](OC(C)=O)[C@]3(O)C(=O)OC)C2)C1 (stereo not given in full) [Vinblastine],percent Bodipy-positive cells,[1],90.84 ± 0.28%
O=C(Nc1ccccc1)c1cc([N+](=O)[O-])ccc1Cl,percent Bodipy-positive cells,[2],8.99 ± 1.2%
same,percent Bodipy-positive cells,[3],15.9 ± 1.7%
C=C1C(=O)O[C@@H]2/C=C(\C)CC/C=C(\C)CC[C@@H]12 [Costunolide],percent Bodipy-positive cells,[3],11.7 ± 0.71%
Cc1onc(-c2ccccc2)c1-c1ccc(S(N)(=O)=O)cc1 [Valdecoxib],percent Bodipy-positive cells,[3],14.2 ± 0.98%
same,percent Bodipy-positive cells,[1],57.6% and 43%
Cc1onc(-c2ccccc2)c1-c1ccc(S(N)(=O)=O)cc1,percent Bodipy-positive cells,[1],9.21 ± 1.4%
COc1ccc(CCN(C)CCCC(C#N)(c2ccc(OC)c(OC)c2)C(C)C)cc1OC (stereo not given) [Verapamil hydrochloride],percent Bodipy-positive cells,[1],71.05 ± 0.62%
COc1ccc(CCN(C)CCCC(C#N)(c2ccc(OC)c(OC)c2)C(C)C)cc1OC (stereo not given) [Verapamyl hydrochloride],percent Bodipy-positive cells,,56.8 ± 2%
COc1ccc(CCN(C)CCCC(C#N)(c2ccc(OC)c(OC)c2)C(C)C)cc1OC (stereo not given) [Verapamil HCl],percent Bodipy-positive cells,[3],61.2 ± 5.8%
same,percent Bodipy-positive cells,[1],62.8 ± 1.8%
COc1ccc(CCN(C)CCCC(C#N)(c2ccc(OC)c(OC)c2)C(C)C)cc1OC (stereo not given) [Verapamil],percent Bodipy-positive cells,library stock concentration: 4.4 mM,33.3 ± 0.86%
CCCc1cc(=O)[nH]c(=S)[nH]1 [Propylthiouracil],percent Bodipy-positive cells,,25.4 ± 4.7%
same,percent Bodipy-positive cells,[3],8.04 ± 5.2%
Cn1cnc(-c2cc3nccc(Oc4ccc(NC(=S)NC(=O)Cc5ccccc5)cc4F)c3s2)c1 [MGCD-265 analog],percent Bodipy-positive cells,[4],8.41 ± 0.87%
same,percent Bodipy-positive cells,[5],9.42 ± 4.5%
same,percent Bodipy-positive cells,[6],11.5 ± 3%
same,percent Bodipy-positive cells,[3],9.9 ± 2.3%
same,percent Bodipy-positive cells,[1],15.2% and 34%
Cc1ccc(-c2ccc3c(ccc4sc5c(c43)NC[C@@H](C)NC5=O)n2)cn1,percent Bodipy-positive cells,[4],12.4 ± 8.3%
same,percent Bodipy-positive cells,[5],14.8 ± 4.1%
same,percent Bodipy-positive cells,[6],65.1 ± 5.6%
c1ccc2c(Cc3c[nH]c4ccccc34)c[nH]c2c1 [Diidolylmethane],percent Bodipy-positive cells,[2],5.41 ± 1.7%
Cc1sc(N)c(C(=O)c2cccc(C(F)(F)F)c2)c1C,percent Bodipy-positive cells,[1],8.96% and 7.41%
COc1ccc(OC)c2c(=S)c3ccccc3[nH]c12,percent Bodipy-positive cells,[1],6.41 ± 0.97%
COc1ccc(-n2[nH]c3c4c(ncc3c2=O)CCCCC4)cc1,percent Bodipy-positive cells,[1],9.16 ± 3%
CCC(=O)N1CCN(c2ccc(-n3c(=O)ccc4cnc5ccc(-c6cnc7ccccc7c6)cc5c43)cc2C(F)(F)F)CC1 [Torin1],percent Bodipy-positive cells,[4],5.45 ± 0.84%
same,percent Bodipy-positive cells,[5],6.36 ± 1.5%
same,percent Bodipy-positive cells,[6],14.1 ± 0.54%
same,percent Bodipy-positive cells,[1],27.3 ± 1.7%
CO/N=C(\C(=O)N[C@@H]1C(=O)N2C(C(=O)OCOC(=O)C(C)(C)C)=C(/C=C\c3scnc3C)CS[C@H]12)c1csc(N)n1 [Cefditoren Pivoxil],percent Bodipy-positive cells,[3],16.4 ± 18%
same,percent Bodipy-positive cells,[1],14 ± 4.5%
CO/N=C(\C(=O)N[C@@H]1C(=O)N2C(C(=O)OCOC(=O)C(C)(C)C)=C(/C=C\c3scnc3C)CS[C@H]12)c1csc(N)n1 [Cefditorin pivoxil],percent Bodipy-positive cells,[1],36.5 ± 16%
CCCCCCCCCCCCCCCCC(=O)NCCO [Heptadecanoyl Ethanolamide],percent Bodipy-positive cells,[2],14.7 ± 9.6%
O=C(OC[C@H]1O[C@@H](OC(=O)c2cc(O)c(O)c(OC(=O)c3cc(O)c(O)c(O)c3)c2)[C@H](OC(=O)c2cc(O)c(O)c(OC(=O)c3cc(O)c(O)c(O)c3)c2)[C@@H](OC(=O)c2cc(O)c(O)c(OC(=O)c3cc(O)c(O)c(O)c3)c2)[C@@H]1OC(=O)c1cc(O)c(O)c(OC(=O)c2cc(O)c(O)c(O)c2)c1)c1cc(O)c(O)c(OC(=O)c2cc(O)c(O)c(O)c2)c1 [Tannic acid],percent Bodipy-positive cells,[1],41.4 ± 7.8%
COc1cc(C(=O)NC2CCN(C)CC2)ccc1Nc1ncc2c(n1)N(C1CCCC1)C(C)CC(=O)N2C (stereo not given),percent Bodipy-positive cells,[4],11.1 ± 2.9%
same,percent Bodipy-positive cells,[5],15.4 ± 7.1%
same,percent Bodipy-positive cells,[6],23.8 ± 0.61%
same,percent Bodipy-positive cells,[1],52.8 ± 5.1%
N=C(N)c1ccc(OCCCCCOc2ccc(C(=N)N)cc2)cc1 [Pentamidine],percent Bodipy-positive cells,[3],14.3 ± 3.4%
same,percent Bodipy-positive cells,library stock concentration: 5.9 mM,13.2 ± 0.44%
same,percent Bodipy-positive cells,[1],45.8 ± 0.76%
N=C(N)c1ccc(OCCCCCOc2ccc(C(=N)N)cc2)cc1 [Pentamidine isethionate],percent Bodipy-positive cells,,25.6 ± 6.2%
CCCCCCCCCCCCCCCCCCCCCC(=O)NCCO [Docosanoyl Ethanolamide],percent Bodipy-positive cells,[2],6.92 ± 3.5%
Cn1c(NCCN(CCO)CCCc2ccc([N+](=O)[O-])cc2)cc(=O)n(C)c1=O,percent Bodipy-positive cells,[1],8.71 ± 3.9%
Cn1c(NCCN(CCO)CCCc2ccc([N+](=O)[O-])cc2)cc(=O)n(C)c1=O [Nifekalant HCl],percent Bodipy-positive cells,library stock concentration: 4.9 mM,9.8 ± 0.81%

# Quoted at random: 2 entries already listed.
compound,measurement,setting,value
Cn1cnc(-c2cc3nccc(Oc4ccc(NC(=S)NC(=O)Cc5ccccc5)cc4F)c3s2)c1 [MGCD-265 analog],percent Bodipy-positive cells,[4],8.41 ± 0.87%
COc1ccc(CCN(C)CCCC(C#N)(c2ccc(OC)c(OC)c2)C(C)C)cc1OC (stereo not given) [Verapamil],percent Bodipy-positive cells,library stock concentration: 4.4 mM,33.3 ± 0.86%

# Reference: the supplement of paper PMC9135407
